Results published in PubChem BioAssay AID504810 (National Center for Advancing Translational Sciences (NCATS), 2011).
Where “and” joins values, the source holds several entries; their conditions need not be identical. Identical values can stand only once. Among all 330,000 compounds or so, about 670 (0.2%) were called active. This list was built around the results that the source calls inconclusive (neither active nor inactive); the mix of calls is not that of the screen.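 How the source made its calls: active means activity change below a set negative limit, meaning inhibition stronger than a set level (cut at about -70% in these data); inconclusive means activity change between two set negative limits; inactive means the rest.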

The chains behind the UniProt entries cited, without tags or fusion partners.
UniProt P16473, whole entry, looked up: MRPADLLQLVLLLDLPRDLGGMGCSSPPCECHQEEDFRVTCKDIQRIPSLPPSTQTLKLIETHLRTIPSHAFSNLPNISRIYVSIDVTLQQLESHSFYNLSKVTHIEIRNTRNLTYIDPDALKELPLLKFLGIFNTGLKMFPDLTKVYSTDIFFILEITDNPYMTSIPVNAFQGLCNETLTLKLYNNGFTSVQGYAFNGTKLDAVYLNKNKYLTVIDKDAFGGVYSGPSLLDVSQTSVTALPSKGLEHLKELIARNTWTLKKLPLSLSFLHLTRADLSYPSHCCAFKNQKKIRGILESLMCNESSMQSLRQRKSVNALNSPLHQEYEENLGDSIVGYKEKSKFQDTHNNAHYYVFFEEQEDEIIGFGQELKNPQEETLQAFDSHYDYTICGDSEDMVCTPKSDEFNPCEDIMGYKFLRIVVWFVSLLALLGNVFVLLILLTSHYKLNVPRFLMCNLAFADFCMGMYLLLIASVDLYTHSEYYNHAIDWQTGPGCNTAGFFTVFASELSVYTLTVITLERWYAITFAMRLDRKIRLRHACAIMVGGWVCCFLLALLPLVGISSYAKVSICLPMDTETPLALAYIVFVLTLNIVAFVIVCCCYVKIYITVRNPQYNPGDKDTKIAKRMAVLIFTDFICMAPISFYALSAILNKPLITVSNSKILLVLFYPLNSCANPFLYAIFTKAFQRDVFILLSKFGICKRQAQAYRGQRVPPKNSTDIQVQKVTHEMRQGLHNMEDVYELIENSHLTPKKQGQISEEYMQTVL

Each compound was assayed against Thyrotropin receptor (Homo sapiens) (UniProt P16473) (assay: Antagonists of the Thyroid Stimulating Hormone Receptor: HTS campaign). Settings: TSHR-expressing cells, TSH-stimulated cAMP HTRF, 2 h; at 11.5 µM; stronger effect = lower value.
In short: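 Inhibition of cAMP made by TSHR-expressing cells under TSH stimulation (4nM final, EC80; 2 h, 37 deg C) is quantified with a one-step lysis HTRF kit, anti-cAMP cryptate versus cAMP-d2.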
On the % scale 0 is the no-effect control and ±100 the full control effect.

Activity change, negative = inhibition, inconclusive:
C=CCN(c1ccccc1)S(=O)(=O)c1ccc2[nH]cc(C(=O)NCCOC)c(=O)c2c1 -69%
O=C(Nc1ccncc1)Nc1cc(Cl)ccc1Cl -55.6%
O=C(CN1C(=O)NC2(CCCCCC2)C1=O)N1CCC(Cc2ccccc2)CC1 -58.4%
COc1ccc(NC(=O)/C(Cl)=C(/Cl)S(=O)Cc2ccccc2Cl)cn1 (stereo not given) -65.2%
COc1cccc(/C=C/C(=O)OCC(=O)c2c[nH]c3ccccc23)c1 -64.5%
O=C(Nc1ccncc1)c1cc(-c2cccc(Br)c2)nc2ccccc12 -54%
COC(=O)c1ccc(C2C(Oc3ccccc3C)C(=O)N2CCc2ccc(OC)c(OC)c2)cc1 (stereo not given) -56.9%
Cc1csc(CNc2ncnc3ccc(-c4ccoc4)cc23)c1 -60.1% and -59.7%
CC(=O)Oc1ccc(C(c2ccc(OC(C)=O)cc2)c2ccccn2)cc1 -62.8%
COC(=O)CSc1nc(NCc2ccccc2)nc(N(C)C)n1 -69.8%
COc1cc(OC)c(OC)cc1CNC(=O)c1cccc(S(=O)(=O)N2CCc3ccccc3C2)c1 -61.7%
Cc1ccc(S(=O)(=O)N2C(=O)CCC2C(=O)O/N=C(\N)c2ccccc2)cc1 (stereo not given) -56.9%
O=C(NCc1ccc2c(c1)OCO2)C12CN(Cc3ccccc3)CC1C(c1cccc([N+](=O)[O-])c1)=NO2 (stereo not given) -50%
CC(C)(Cc1cc(CC(C)(C)C(=O)O)cc(C(C)(C)C)c1)C(=O)O -57.4%
Cc1ccc(C)c(N2CCN(C(=O)C(Cc3ccccc3)n3cccc3)CC2)c1 (stereo not given) -50.9%
O=S1(=O)C=C(Sc2nc3ccccc3s2)c2ccccc21 -55.2%
CC(C)C(=O)Nc1c(-c2ccc(Cl)cc2)c(=O)c2ccccc2n1C -56.9%
COc1cc(NC(=O)CCNS(=O)(=O)c2cc(Br)cnc2N)cc(OC)c1 -65.6%
O=c1cc(C(F)(F)F)[nH]c2c(C(F)(F)F)cccc12 -56.5%
N#Cc1c(NC(=O)c2ccc(Cn3cc(Br)cn3)o2)sc2c1CCCCCC2 -53.3%
O=C1C(Cl)=C(Nc2ccc(O)cc2)C(=O)c2ccccc21 -64.8%
Cc1ccc(-c2cc(C(=O)Nc3ccncc3)c3ccccc3n2)cc1 -56.7%
CN(C)/C=C(\C=N\OCc1ccc(Cl)cc1Cl)C(=O)Nc1ccc(Cl)c(Cl)c1 -56.8%
COC(=O)CCN(Cc1cc(OC)ccc1OC)S(=O)(=O)c1ccccc1Br -64%
O=C(COC(=O)C1(c2ccc(F)cc2)CCCC1)NCc1ccc2c(c1)OCO2 -52.1%
NC(=O)CSc1oc(-c2ccco2)nc1S(=O)(=O)c1ccccc1 -66.1%
CCCCN1C(=O)c2ccc(C(=O)Nc3ccc(C)c(S(=O)(=O)N(C)C)c3)cc2C1=O -66.5%
Cc1ccc(NS(=O)(=O)c2cc(C(=O)Nc3cccc([N+](=O)[O-])c3)ccc2C)cc1 -56%

Activity change, negative = inhibition, inactive:
O=C(NNC(=O)c1cc(-c2ccccc2Cl)nc2ccccc12)c1csc(N2CCOCC2)n1 0.138%
CCN(/C=N/c1sc2c(c1C#N)CCCCC2)CC -0.241%
O=C(CN1CCN(Cc2ccccc2)CC1)Nc1ccccc1-c1ccccc1 -14.3%
COc1ccc(CN2CCNC(=O)C2CC(=O)NCC2CCOCC2)c(F)c1 (stereo not given) -0.76%
Cc1cccc(NC(=O)C(=O)NCCCc2ccccc2)c1 -11.3%
CN1CCN(C(=O)CCN2C(=O)/C(=C/c3ccccc3Cl)SC2=S)CC1 4.56%
O=C1Nc2ccccc2C12OCC(COc1ccc(Cl)cc1)O2 (stereo not given) -23.7%
COc1ccc(S(=O)(=O)NCc2ccncc2)cc1NC(=O)c1ccccc1 -3.95%
Cc1cc(S(=O)(=O)N2CCN(c3ccccn3)CC2)ccc1F 39.9%
CCC1=NN(C(=O)CCc2ccccc2)C(O)(C(F)(F)F)C1 (stereo not given) 11.6%
CCOC(=O)C1(Cc2cccc(OC)c2)CCCN(C(=O)CCN2CCCO2)C1 (stereo not given) 36.7%
O=S(=O)(/N=C(/Nc1cc(N2CCOCC2)ncn1)c1ccccc1)c1ccccc1 -2.88%
CCOc1cc(N2CCOCC2)c(OCC)cc1NC(=O)CN1CCc2ccccc2C1 6.41%
CC(=O)Nc1cccc(O)c1 -4.09%
COc1cccc(-c2cc(C(F)(F)F)n3ncc(C(=O)O)c3n2)c1 -10.7%
O=C(CNC(=O)c1ccc(F)cc1)N/N=C/c1cc(Br)ccc1OC(=O)/C=C/c1ccco1 0.721%
CCCc1ccc(OCc2ccc(C(=O)N3CCSCC3)o2)cc1 1.1%
COc1ccc(/C=C/c2ccc3c(Br)ccc(O)c3n2)cc1 4.52%
CCc1c(C)nc2ncnn2c1NCCc1ccc(OC)cc1 -24.3%
COc1ccc(C)cc1NC(=S)N1CC(C)OC(C)C1 (stereo not given) 3.68%

Activity change, negative = inhibition, active:
O=C(NC1CCOc2ccccc21)c1ccccn1 (stereo not given) -91.7%
Cc1ccc(S(=O)(=O)/N=C2/NC(=O)/C(=C\c3cc(Br)cc(Br)c3O)S2)cc1 -99.8%
CCc1oc2ccccc2c1C(=O)c1cc(Br)c(O)c(Br)c1 -73.5% and -70.1%
CC(=O)C1=C(O)C(=O)N(c2ccc(O)cc2)C1c1cccc(F)c1 (stereo not given) -80.2%
Cc1cc(C)cc(OC(C)C(=O)NCCCn2ccnc2)c1 (stereo not given) -104%
C/C(=N\NC(=O)c1nnn(-c2nonc2N)c1-c1ccc(Cl)c(Cl)c1)c1ccncc1 -86.5%
CSCSC1=C(C#N)C(c2ccccc2Cl)C(C(C)=O)=C(C)N1 (stereo not given) -79.8%
